Test results taken from article PMC10509710.
These are yes or no findings as the source states them, for the method shown. Some results given as binding are weak or reduced against the parent protein; the word gives no strength.

Sequences of proteins named here, by UniProt entry; tags and fusion partners are left off.
UniProt P16671: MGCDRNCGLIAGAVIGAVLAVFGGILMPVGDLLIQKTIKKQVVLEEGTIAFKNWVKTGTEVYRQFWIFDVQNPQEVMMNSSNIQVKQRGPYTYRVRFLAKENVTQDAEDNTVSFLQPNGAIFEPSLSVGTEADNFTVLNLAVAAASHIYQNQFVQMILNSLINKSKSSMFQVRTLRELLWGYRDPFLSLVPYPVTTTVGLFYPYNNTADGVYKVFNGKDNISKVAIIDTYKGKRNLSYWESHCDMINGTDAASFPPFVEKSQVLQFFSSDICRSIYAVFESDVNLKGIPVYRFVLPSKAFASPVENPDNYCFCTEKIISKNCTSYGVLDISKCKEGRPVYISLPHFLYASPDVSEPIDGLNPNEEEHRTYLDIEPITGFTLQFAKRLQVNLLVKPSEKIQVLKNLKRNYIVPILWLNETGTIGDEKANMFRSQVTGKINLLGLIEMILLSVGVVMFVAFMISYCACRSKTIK

Biological target: human full-length cluster of differentiation 36 (CD36), glycosylated (human) (UniProt P16671)
Experiment: native gel or EMSA; nondenaturing perfluorooctanoic acid (PFO)-PAGE on 8% polyacrylamide gels of sonicated lysates of infected Sf9 cells (72 h), immunoblot against SR-B1 or CD36

Substance: human full-length cluster of differentiation 36 (CD36), glycosylated (from UniProt P16671 1-472) (receptor)
- binding: binds
